No constants are given. Whether binding was seen depends on the method and setting. Some results given as binding are weak or reduced against the parent protein; the word gives no strength.
Tests used:
asialofetuin [1] = biological target: T1, asialofetuin (UniProt P12763); test: ELISA; direct binding of galectin constructs to ASF (data in Table S8); both purified
T1 sequence (chain, glycoprotein without sialic acids (asialofetuin), as the name says): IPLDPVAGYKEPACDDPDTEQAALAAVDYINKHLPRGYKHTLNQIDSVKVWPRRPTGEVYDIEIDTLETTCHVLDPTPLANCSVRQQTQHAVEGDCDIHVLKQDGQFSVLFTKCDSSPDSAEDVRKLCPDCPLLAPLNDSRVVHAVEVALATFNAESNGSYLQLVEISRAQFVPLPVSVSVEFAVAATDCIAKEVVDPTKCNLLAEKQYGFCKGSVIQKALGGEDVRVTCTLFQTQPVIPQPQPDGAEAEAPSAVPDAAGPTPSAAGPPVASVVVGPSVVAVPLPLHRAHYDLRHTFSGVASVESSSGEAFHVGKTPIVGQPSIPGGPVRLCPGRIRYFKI

The chains behind the UniProt entries cited, without tags or fusion partners.
UniProt O00214: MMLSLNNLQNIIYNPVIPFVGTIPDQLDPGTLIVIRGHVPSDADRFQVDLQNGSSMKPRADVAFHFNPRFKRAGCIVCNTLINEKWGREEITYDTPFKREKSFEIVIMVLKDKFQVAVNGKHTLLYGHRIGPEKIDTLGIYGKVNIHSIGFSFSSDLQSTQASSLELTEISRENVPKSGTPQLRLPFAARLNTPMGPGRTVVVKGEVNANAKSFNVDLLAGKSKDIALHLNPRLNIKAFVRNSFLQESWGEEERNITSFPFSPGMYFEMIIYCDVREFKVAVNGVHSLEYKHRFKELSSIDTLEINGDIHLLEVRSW
UniProt P56470: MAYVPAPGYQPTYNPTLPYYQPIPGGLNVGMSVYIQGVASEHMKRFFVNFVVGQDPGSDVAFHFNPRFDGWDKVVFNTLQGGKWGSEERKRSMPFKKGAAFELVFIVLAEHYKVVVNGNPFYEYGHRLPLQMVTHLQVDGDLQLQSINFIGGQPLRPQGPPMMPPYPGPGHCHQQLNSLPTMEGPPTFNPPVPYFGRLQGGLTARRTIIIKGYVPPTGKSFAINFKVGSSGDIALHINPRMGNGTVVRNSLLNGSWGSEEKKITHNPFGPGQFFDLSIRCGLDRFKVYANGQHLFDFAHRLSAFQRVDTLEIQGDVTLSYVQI
UniProt P09382: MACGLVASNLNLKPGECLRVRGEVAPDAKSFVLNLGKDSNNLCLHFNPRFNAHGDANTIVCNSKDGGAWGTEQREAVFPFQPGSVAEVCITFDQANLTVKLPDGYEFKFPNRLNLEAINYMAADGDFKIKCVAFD
UniProt P17931: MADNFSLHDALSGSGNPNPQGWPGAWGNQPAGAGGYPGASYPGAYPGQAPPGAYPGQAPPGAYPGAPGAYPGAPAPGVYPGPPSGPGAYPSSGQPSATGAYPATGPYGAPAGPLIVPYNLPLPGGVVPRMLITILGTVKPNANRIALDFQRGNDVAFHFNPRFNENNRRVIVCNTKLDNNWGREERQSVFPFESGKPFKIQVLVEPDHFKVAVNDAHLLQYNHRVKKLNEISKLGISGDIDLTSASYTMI

asialofetuin [2] = biological target: T1, asialofetuin; test: ELISA; competitive: ASF (0.1 μM in PBS) immobilised on microtiter plates; serial dilutions of inhibitor in EPBS (PBS with 2 mM EDTA) incubated 2 h with a constant galectin concentration ([…] Gal-1, Gal-3, Gal-4; 0.5 μM Gal-8, Gal-9); residual galectin on ASF detected with anti-His-tag-HRP; both purified
Asialofetuin [3] = biological target: T2, Asialofetuin (UniProt P12763); test: ELISA; competitive ELISA: ASF (0.1 µM in PBS) immobilised, serial dilutions of the neo-glycoprotein in EPBS incubated with […] Gal-1 or Gal-3 for 2 h; galectin left on ASF detected with anti-His-tag-HRP; both purified
T2 sequence (chain, asialo form (glycans without sialic acid), by its name only): T1 sequence (chain, glycoprotein without sialic acids (asialofetuin), as the name says)

Substance | binding (asialofetuin [1]) | binding (asialofetuin [2]) | binding (Asialofetuin [3])
full-length recombinant human galectin-8, N-terminal His-tagged (from UniProt O00214 1-317) | binds | binds | 
full-length recombinant human galectin-4, N-terminal His-tagged (from UniProt P56470 1-323) | binds | binds | 
full-length recombinant human galectin-1, N-terminal His-tagged (from UniProt P09382 1-135) | binds | binds | 
full-length recombinant human galectin-9, N-terminal His-tagged (from UniProt O00182 1-355) | binds | binds | 

Second part, the substance after the results:

binding (asialofetuin [1]) | binding (asialofetuin [2]) | binding (Asialofetuin [3]) | Substance
 |  | binds | His-tagged galectin-3 (from UniProt P17931 1-250)
binds | binds |  | full-length recombinant human galectin-3, N-terminal His-tagged (from UniProt P17931 1-250)

From publication PMC12344693, “Human Milk Oligosaccharides Multivalently Presented on Defined Synthetic Neo-Glycoproteins Are Nanomolar Ligands of Tandem-Repeat Galectins” (Biomacromolecules, 2025)
